Assay [1] addresses UBQLN2 (mouse, endogenous, wild type) (mouse (endogenous in brain and MEFs)) (UniProt Q9QZM0). As to the kind of experiment: co-IP; reciprocal IP of HTT and UBQLN2 from brains of R6/2 transgenic and HdhQ150 knockin mice once HTT had aggregated; aggregated HTT and HSP70 in the stacking gel.
Assay [2] shares this target. Nature of the assay: condition: only SDS-soluble HTT, before HTT had aggregated; co-IP; reciprocal IP of HTT and UBQLN2 from brains of R6/2 and HdhQ150 mice: SDS-soluble HTT, ages before HTT had aggregated.

By UniProt entry, the sequences of proteins in these tests, tags left out. Where a name states a change or a piece, a line headed by the entry shows the natural chain unless it says otherwise.
UniProt Q9QZM0: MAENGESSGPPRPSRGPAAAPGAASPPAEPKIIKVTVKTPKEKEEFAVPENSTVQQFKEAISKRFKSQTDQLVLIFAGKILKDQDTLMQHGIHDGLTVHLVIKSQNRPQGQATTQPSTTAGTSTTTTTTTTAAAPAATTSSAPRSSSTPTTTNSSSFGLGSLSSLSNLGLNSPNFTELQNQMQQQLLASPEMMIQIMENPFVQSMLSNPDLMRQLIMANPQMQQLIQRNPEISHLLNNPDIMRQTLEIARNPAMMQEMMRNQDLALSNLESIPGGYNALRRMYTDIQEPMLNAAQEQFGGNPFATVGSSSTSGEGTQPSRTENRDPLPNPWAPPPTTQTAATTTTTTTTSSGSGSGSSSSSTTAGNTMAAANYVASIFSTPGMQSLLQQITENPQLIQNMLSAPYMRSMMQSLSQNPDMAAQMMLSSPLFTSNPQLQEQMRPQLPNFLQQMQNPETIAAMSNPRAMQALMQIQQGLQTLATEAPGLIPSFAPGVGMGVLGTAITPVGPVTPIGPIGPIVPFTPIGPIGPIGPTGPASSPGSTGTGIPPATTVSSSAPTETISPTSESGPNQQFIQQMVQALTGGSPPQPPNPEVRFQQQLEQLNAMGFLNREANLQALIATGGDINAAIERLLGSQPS
UniProt P42859: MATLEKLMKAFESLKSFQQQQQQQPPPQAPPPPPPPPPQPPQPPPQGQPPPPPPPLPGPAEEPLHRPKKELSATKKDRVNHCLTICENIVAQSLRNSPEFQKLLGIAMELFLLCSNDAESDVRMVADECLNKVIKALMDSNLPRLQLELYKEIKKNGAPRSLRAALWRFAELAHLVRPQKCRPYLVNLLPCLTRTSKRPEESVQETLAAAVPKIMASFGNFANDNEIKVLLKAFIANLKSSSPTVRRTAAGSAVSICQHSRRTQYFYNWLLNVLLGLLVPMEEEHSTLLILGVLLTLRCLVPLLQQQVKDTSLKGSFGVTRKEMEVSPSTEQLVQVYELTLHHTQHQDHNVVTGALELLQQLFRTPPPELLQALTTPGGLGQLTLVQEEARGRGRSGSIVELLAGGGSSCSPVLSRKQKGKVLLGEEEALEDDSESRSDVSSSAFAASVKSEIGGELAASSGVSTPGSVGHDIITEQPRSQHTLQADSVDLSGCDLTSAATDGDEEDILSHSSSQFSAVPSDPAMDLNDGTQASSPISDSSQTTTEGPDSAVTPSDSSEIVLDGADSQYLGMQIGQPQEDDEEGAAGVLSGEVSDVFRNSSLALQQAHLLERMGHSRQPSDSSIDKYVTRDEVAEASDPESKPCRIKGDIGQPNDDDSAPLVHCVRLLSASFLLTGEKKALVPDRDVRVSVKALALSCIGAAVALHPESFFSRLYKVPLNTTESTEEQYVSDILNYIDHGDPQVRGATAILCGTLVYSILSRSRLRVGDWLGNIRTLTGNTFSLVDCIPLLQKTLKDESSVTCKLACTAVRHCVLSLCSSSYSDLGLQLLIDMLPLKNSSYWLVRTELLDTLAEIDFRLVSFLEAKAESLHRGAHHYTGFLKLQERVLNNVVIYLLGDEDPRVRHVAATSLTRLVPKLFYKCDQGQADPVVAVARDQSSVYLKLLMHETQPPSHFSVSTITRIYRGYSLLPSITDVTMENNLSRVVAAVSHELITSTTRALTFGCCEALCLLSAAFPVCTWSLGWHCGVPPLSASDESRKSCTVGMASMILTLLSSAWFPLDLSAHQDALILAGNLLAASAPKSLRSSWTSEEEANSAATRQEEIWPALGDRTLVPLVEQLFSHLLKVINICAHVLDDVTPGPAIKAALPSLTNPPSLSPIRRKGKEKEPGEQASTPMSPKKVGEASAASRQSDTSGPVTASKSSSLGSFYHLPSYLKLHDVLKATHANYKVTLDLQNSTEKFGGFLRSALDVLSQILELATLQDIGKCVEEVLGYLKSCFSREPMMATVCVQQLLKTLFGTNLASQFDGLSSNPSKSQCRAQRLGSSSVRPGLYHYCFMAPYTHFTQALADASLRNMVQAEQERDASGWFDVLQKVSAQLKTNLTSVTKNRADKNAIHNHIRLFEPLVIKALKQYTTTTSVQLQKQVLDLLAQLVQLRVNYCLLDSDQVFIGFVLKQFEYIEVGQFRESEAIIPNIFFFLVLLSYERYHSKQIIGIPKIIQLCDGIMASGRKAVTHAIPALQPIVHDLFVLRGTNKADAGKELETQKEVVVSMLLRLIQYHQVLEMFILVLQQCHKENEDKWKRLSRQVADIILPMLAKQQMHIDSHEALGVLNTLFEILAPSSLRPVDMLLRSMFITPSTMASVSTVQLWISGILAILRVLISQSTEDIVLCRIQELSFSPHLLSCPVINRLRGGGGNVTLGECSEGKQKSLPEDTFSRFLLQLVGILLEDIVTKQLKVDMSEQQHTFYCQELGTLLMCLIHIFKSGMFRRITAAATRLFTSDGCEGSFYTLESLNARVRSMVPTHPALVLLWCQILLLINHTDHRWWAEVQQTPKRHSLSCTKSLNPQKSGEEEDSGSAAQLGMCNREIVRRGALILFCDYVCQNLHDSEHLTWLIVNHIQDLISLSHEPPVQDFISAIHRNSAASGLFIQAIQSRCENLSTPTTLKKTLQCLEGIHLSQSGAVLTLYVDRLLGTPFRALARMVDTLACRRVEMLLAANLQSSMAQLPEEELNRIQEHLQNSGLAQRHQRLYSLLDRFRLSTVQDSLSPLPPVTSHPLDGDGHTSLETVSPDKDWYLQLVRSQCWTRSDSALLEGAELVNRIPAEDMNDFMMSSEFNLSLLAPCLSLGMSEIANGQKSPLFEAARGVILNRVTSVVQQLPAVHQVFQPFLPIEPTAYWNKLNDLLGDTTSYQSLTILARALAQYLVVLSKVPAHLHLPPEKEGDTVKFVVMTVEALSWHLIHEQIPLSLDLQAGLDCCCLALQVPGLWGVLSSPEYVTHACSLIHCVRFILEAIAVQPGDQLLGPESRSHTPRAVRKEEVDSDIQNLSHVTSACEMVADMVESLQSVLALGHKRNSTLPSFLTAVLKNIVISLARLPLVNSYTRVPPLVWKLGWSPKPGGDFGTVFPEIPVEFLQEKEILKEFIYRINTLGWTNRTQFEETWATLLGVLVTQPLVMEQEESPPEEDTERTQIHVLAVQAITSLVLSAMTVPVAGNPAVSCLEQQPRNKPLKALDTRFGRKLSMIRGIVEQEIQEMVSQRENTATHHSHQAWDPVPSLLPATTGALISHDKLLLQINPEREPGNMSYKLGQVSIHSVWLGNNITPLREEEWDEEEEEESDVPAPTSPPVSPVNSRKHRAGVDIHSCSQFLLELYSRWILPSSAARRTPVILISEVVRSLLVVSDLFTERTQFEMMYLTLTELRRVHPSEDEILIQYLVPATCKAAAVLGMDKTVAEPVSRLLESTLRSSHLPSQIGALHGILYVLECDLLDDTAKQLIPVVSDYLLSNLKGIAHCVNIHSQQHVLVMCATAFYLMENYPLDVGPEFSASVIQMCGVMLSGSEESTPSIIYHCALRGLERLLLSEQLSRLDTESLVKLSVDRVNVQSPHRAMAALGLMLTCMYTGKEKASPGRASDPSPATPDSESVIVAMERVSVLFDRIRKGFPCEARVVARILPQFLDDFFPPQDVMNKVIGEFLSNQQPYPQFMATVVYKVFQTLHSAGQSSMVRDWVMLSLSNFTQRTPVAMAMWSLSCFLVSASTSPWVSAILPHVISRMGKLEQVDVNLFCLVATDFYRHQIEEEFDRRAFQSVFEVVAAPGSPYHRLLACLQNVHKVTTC

Results are given in words; binding and its absence hold for the method and conditions named. Binding seen in cells or lysates may run through a third protein. For some assays here: A result given as binding can be weak or reduced; the word gives no strength.

Turning to “mutant Huntingtin of the HdhQ150 knockin mouse (from UniProt P42859)”, the results for the binding entry in assay [1] and in assay [2] were “binds” and “no binding”, respectively.

For the origin of these results see PMC5003816.
